Experimental data published in patent publication US8198235B2, “Use of GILZ protein expressed in dendritic cells to modulate an antigen-specific immune response” (Assistance Publique-Hopitaux de Paris, priority 2004, dated 2012).
At least one structure is not confirmed: it was looked up by name or label, or the drawing left a doubt.

Tests used:
[1] = test system: autologous CD4+ T lymphocytes; test: Coculture of PPD-loaded dendritic cells with autologous CD4+ T cells, proliferation (PKH26); type: cell-based, human; conditions: treated D5, PPD D7, proliferation D14
[2] = test system: regulatory T lymphocytes; test: Induction of regulatory T cells: sensitized CD4+ T cells added to autologous PBMCs stimulated with PPD or CMV; type: cell-based, human; conditions: CD4+ T sensitized with PPD-loaded dendritic cells treated with dexamethasone and control siRNA
Description: To evaluate the induction of the regulatory T cells (Tregs), immature monocyte-derived dendritic cells treated on the fifth day of culture (D5) with a controlled siRNA or an siRNA targeting GILZ (siRNA GILZ) alone, or else with either dexamethasone (DEX) or IL-10, or not treated, and then treated with the PPD on D7, were cocultured with CD4^+ T cells, as described in example 2. The CD4^+ T cells were purified on the seventh day of DC-CD4^+ T coculture and added in increasing amounts to 10^5 autologous PBMCs stimulated with PPD (1 μg/ml, STATENS SERUM INSTITUTE) or the cytomegalovirus (CMV, 25 μg/ml, BEHRING).
The hypothesis that the GILZ-expressing dendritic cells inhibit the CD4^+ T lymphocyte response by inducing regulatory T lymphocytes during antigen presentation was verified experimentally. Dendritic cells were treated with a control or anti-GILZ siRNA, alone or with dexamethasone, and with PPD (first culture). After washing, the dendritic cells were used to stimulate autologous CD4^+ T lymphocytes. The CD4^+ T lymphocytes of this second culture (sensitized CD4^+ T lymphocytes) were purified and added in increasing amounts to autologous PBMCs stimulated either with PPD or with CMV (third culture). The CD4^+ T lymphocytes sensitized with nontreated dendritic cells or dendritic cells treated with a control siRNA have no effect on the proliferative response of the third culture. […]

In the case of `C[C@@H]1C[C@H]2[C@@H]3CCC4=CC(=O)C=C[C@]4(C)[C@@]3(F)[C@@H](O)C[C@]2(C)[C@@]1(O)C(=O)CO` [dexamethasone], the “ability of dendritic cells to stimulate CD4+ T lymphocytes” value [1] is reported as “decreases” and the “anti-PPD response of the third culture” value [2] is reported as “inhibit”.
